Data published in PMC5173322, “Neurodegenerative disease mutations in TREM2 reveal a functional surface and distinct loss-of-function mechanisms” (eLife, 2016).
No constants are given. Whether binding was seen depends on the method and setting.

Experiments:
[1] = biological target: human TREM2 ectodomain D87N (human) (UniProt Q9NZC2); assay: SEC; analytical gel filtration (Superdex 200 10/300 GL) of the purified ectodomain, monomer fraction concentrated and re-run; 20 mM Tris pH 8.5, 150 mM NaCl; both purified
[2] = biological target: human TREM2 ectodomain D87N (human) (UniProt Q9NZC2); assay: non-reducing SDS-PAGE; purified AD risk variant ectodomains prepared with and without beta-mercaptoethanol; both purified
[3] = biological target: human TREM2 ectodomain T96K (human) (UniProt Q9NZC2); assay: SEC; analytical gel filtration (Superdex 200 10/300 GL) of the purified ectodomain, monomer fraction concentrated and re-run; 20 mM Tris pH 8.5, 150 mM NaCl; both purified
[4] = biological target: human TREM2 ectodomain T96K (human) (UniProt Q9NZC2); assay: non-reducing SDS-PAGE; purified AD risk variant ectodomains prepared with and without beta-mercaptoethanol; both purified
[5] = biological target: human TREM2 ectodomain R47H (human) (UniProt Q9NZC2); assay: SEC; analytical gel filtration (Superdex 200 10/300 GL) of the purified ectodomain, monomer fraction concentrated and re-run; 20 mM Tris pH 8.5, 150 mM NaCl; both purified
[6] = biological target: human TREM2 ectodomain R47H (human) (UniProt Q9NZC2); assay: non-reducing SDS-PAGE; purified AD risk variant ectodomains prepared with and without beta-mercaptoethanol; both purified
[7] = biological target: human TREM2 ectodomain R62H (human) (UniProt Q9NZC2); assay: SEC; analytical gel filtration (Superdex 200 10/300 GL) of the purified ectodomain, monomer fraction concentrated and re-run; 20 mM Tris pH 8.5, 150 mM NaCl; both purified
[8] = biological target: human TREM2 ectodomain R62H (human) (UniProt Q9NZC2); assay: non-reducing SDS-PAGE; purified AD risk variant ectodomains prepared with and without beta-mercaptoethanol; both purified
[9] = biological target: human TREM2 ectodomain N68K (human) (UniProt Q9NZC2); assay: SEC; analytical gel filtration (Superdex 200 10/300 GL) of the purified ectodomain, monomer fraction concentrated and re-run; 20 mM Tris pH 8.5, 150 mM NaCl; both purified
[10] = biological target: human TREM2 ectodomain N68K (human) (UniProt Q9NZC2); assay: non-reducing SDS-PAGE; purified AD risk variant ectodomains prepared with and without beta-mercaptoethanol; both purified

B1: human TREM2 ectodomain D87N (domain or fragment, UniProt Q9NZC2 19-134)
chain: HNTTVFQGVAGQSLQVSCPYDSMKHWGRRKAWCRQLGEKGPCQRVVSTHNLWLLSFLRRWNGSTAITDNTLGGTLTITLRNLQPHDAGLYQCQSLHGSEADTLRKVLVEVLADPLD
For B1, the binding [1] was “no binding” and the binding [2] was “no binding”.

B2: human TREM2 ectodomain T96K (domain or fragment, UniProt Q9NZC2 19-134)
chain: HNTTVFQGVAGQSLQVSCPYDSMKHWGRRKAWCRQLGEKGPCQRVVSTHNLWLLSFLRRWNGSTAITDDTLGGTLTIKLRNLQPHDAGLYQCQSLHGSEADTLRKVLVEVLADPLD
For B2, the binding [3] was “no binding” and the binding [4] was “no binding”.

B3: human TREM2 ectodomain R47H (domain or fragment, UniProt Q9NZC2 19-134)
chain: HNTTVFQGVAGQSLQVSCPYDSMKHWGRHKAWCRQLGEKGPCQRVVSTHNLWLLSFLRRWNGSTAITDDTLGGTLTITLRNLQPHDAGLYQCQSLHGSEADTLRKVLVEVLADPLD
For B3, the binding [5] was “no binding” and the binding [6] was “no binding”.

B4: human TREM2 ectodomain R62H (domain or fragment, UniProt Q9NZC2 19-134)
chain: HNTTVFQGVAGQSLQVSCPYDSMKHWGRRKAWCRQLGEKGPCQHVVSTHNLWLLSFLRRWNGSTAITDDTLGGTLTITLRNLQPHDAGLYQCQSLHGSEADTLRKVLVEVLADPLD
In the case of B4, the binding [7] is reported as “no binding” and the binding [8] is reported as “no binding”.

B5: human TREM2 ectodomain N68K (domain or fragment, UniProt Q9NZC2 19-134)
chain: HNTTVFQGVAGQSLQVSCPYDSMKHWGRRKAWCRQLGEKGPCQRVVSTHKLWLLSFLRRWNGSTAITDDTLGGTLTITLRNLQPHDAGLYQCQSLHGSEADTLRKVLVEVLADPLD
B5 was tested, and the binding [9] was “no binding” and the binding [10] was “no binding”.
